From PubChem BioAssay AID540256 (National Center for Advancing Translational Sciences (NCATS), 2011)
Hit rate of the full screen: of about 300,000 compounds, about 3,700 (1.2%) were called active. The inconclusive results got no clear call from the source; some entries with a clear call stand among them for comparison. The call rests on the fitted dose curve; tested in HEK293 cells. Potencies beside an inconclusive call are fits to weak or partial responses and may not hold up.
On the % scale 0 is the no-effect control and ±100 the full control effect; potency means the concentration at half of the fitted maximal effect.

Test: qHTS for Inhibitors of binding or entry into cells for Lassa Virus; further: nearly all actives have a fitted effect of over 50% in size
Conditions: Lassa virus pseudotype entry inhibition, cell reporter; activity change, negative = inhibition: at 37.9 µM (top of the series) unless noted
In the case of COc1ccc(S(=O)(=O)NCC(c2ccco2)N2CCN(c3ccc(F)cc3)CC2)cc1C (configuration not stated), the Potency is reported as inconclusive: 7.94 µM [inhibitor, full curve, poor fit]. With CCOC(=O)c1sc2nc3c(cc2c1N)COC(C)(C)C3 the Potency was inconclusive: 5.17 µM [activator, partial curve]. For NS(=O)(=O)c1ccc(N2CCN(CCOc3ccc(Cl)cc3)CC2)nc1, the Potency was inconclusive: 15.8 µM [inhibitor, single point]. For COc1ccc(Cl)cc1NC(=O)CSc1cn(CC(=O)N2CCCCCC2)c2ccccc12, the Potency was inconclusive: 2.82 µM [inhibitor, partial curve, poor fit]. For COc1ccc(CCn2c(C)cc(C(=O)CSc3nnc(N)s3)c2C)cc1, the Potency was inconclusive: 29.1 µM [inhibitor, single point]. With CCCCC(=O)Nc1cccc(NC(=O)CC)c1 the Potency was inconclusive: 23.1 µM [activator, single point]. For CCc1ccc(S(=O)(=O)/N=C2\C=C(Nc3ccc(C(=O)O)cc3)C(=O)c3ccccc32)cc1, the Potency was inconclusive: 8.91 µM [inhibitor, partial curve, poor fit]. In the case of CN(c1ccc(OCc2nnc(-c3ccccc3)o2)cc1)S(=O)(=O)c1ccccc1, the Potency is reported as inconclusive: 11.2 µM [inhibitor, single point]. For COc1cc(NC(=O)C(CCSC)NS(=O)(=O)c2ccc3c(c2)oc(=O)n3C)cc(OC)c1 (configuration not stated), the “activity change, negative = inhibition” value was inactive: 19.6% [at 46.1 µM]. In the case of C=CCc1c(C)nc2c(-c3ccccc3)cnn2c1N1CCOCC1, the “activity change, negative = inhibition” value is reported as inactive: 6.01% [at 46.1 µM]. For CCOC(=O)c1cnc2ccc(OCC)cc2c1N1CCN(C)CC1, the “activity change, negative = inhibition” value was inactive: -3.66%. In the case of Cc1ccc(-c2nnc3ccccc3c2C(=O)Nc2ccccc2F)cc1, the Potency is reported as inconclusive: 35.5 µM [activator, single point]. With COC(=O)c1cn(C(=O)OC)c2ccccc12 the “activity change, negative = inhibition” value was inactive: 4.35%. For N/C(Cc1ccc([N+](=O)[O-])cc1)=N\OC(=O)c1ccccc1Br, the Potency was inconclusive: 35.5 µM [inhibitor, single point]. In the case of COc1cc(NC(=O)CC(C)n2nc(C)cc2C)cc(OC)c1 (configuration not stated), the “activity change, negative = inhibition” value is reported as inactive: -10.4% [at 46.1 µM]. For Cc1sc(-n2c(C)cc(/C=C3\SC(=S)NC3=O)c2C)c(C#N)c1C, the Potency was inconclusive: 32.6 µM [inhibitor, single point]. For CC1CCN(S(=O)(=O)c2nnc(NC(=O)c3cccc(Br)c3)s2)CC1, the Potency was inconclusive: 5.62 µM [activator, single point]. In the case of COc1ccc(-c2cc3nc(CCl)[nH]c(=O)c3s2)cc1, the Potency is reported as inconclusive: 1.58 µM [inhibitor, full curve, poor fit]. With Cc1cccc(-c2oc(C)c(C)[n+]2[O-])c1 the Potency was inconclusive: 29.1 µM [activator, single point]. With CCS(=O)(=O)N1CCC(C(=O)O)CC1 the “activity change, negative = inhibition” value was inactive: 3.61%. In the case of Cc1ccc(N2C(=O)CC(NNC(=O)c3cccc(S(=O)(=O)N4CCCC4)c3)C2=O)cc1 (configuration not stated), the Potency is reported as inconclusive: 13 µM [activator, partial curve, poor fit]. In the case of O=C(O)c1cccc(N/N=C/c2cccnc2)c1, the Potency is reported as inconclusive: 10 µM [inhibitor, partial curve, poor fit]. With CC1CCC/C(=N\NC(=O)Nc2ccccc2)C1 (configuration not stated) the “activity change, negative = inhibition” value was inactive: -2.21%. With COC1=C(Nc2ccc(O)cc2)C(=O)c2ccccc2C1=O the Potency was inconclusive: 35.5 µM [inhibitor, single point]. For Cc1ccc(-n2cc(CNC(C)Cn3cncn3)c(-c3ccc(F)cc3)n2)cc1 (configuration not stated), the “activity change, negative = inhibition” value was inactive: -14.7%. For CCNc1nc(NC(C)(C)C)nc(Oc2ccc(=O)n(C)n2)n1, the “activity change, negative = inhibition” value was inactive: 10.4% [at 46.1 µM]. With CC(=O)N(/N=C/c1cccc(C)c1)c1nc(-c2ccc(Br)cc2)cs1 the Potency was inconclusive: 1.64 µM [inhibitor, full curve]. For COc1cc(-n2c(=S)[nH]c3ccc(C)cc3c2=O)c(Cl)cc1Cl, the Potency was inconclusive: 7.08 µM [inhibitor, partial curve, poor fit]. With Cc1cccc2nc(-c3cccnc3)c(NCCC(C)C)n12 the “activity change, negative = inhibition” value was inactive: -5.26%. For COc1ccc(-c2cc(-c3ccccc3)[n+](C)c(-c3ccccc3)c2)cc1, the Potency was inconclusive: 8.91 µM [inhibitor, partial curve, poor fit]. For CS(=O)(=O)N1CCC(Oc2ccccc2C(=O)NCCCc2cccnc2)CC1, the “activity change, negative = inhibition” value was inactive: 5.07% [at 46.1 µM]. For O=C(Cn1cc(S(=O)(=O)Cc2ccc([N+](=O)[O-])cc2)c2ccccc21)N1CCOCC1, the Potency was inconclusive: 1.41 µM [inhibitor, partial curve, poor fit]. With O=C1[C@@H]2[C@@H]3C[C@@H]([C@H]4ON=C(c5ccc(Cl)cc5Cl)[C@@H]34)[C@@H]2C(=O)N1C1CCCCC1 the Potency was inconclusive: 22.4 µM [inhibitor, single point]. In the case of CC(C)(C)C(=O)NC(=S)Nc1cc(C(F)(F)F)ccc1N1CCOCC1, the Potency is reported as inconclusive: 35.5 µM [inhibitor, single point]. In the case of O=C(c1ccc2c(c1)OCO2)C1CCCN(Cc2ccccn2)C1 (configuration not stated), the “activity change, negative = inhibition” value is reported as inactive: 1.24% [at 46.1 µM]. In the case of COc1cc(NC(=O)C2CCCN(S(=O)(=O)c3cccc4nsnc34)C2)cc(OC)c1 (configuration not stated), the Potency is reported as inconclusive: 29.1 µM [inhibitor, single point]. In the case of CCCC1(CCC)NC(=O)N(CC(=O)Nc2ccc(Cl)c(S(=O)(=O)N3CCOCC3)c2)C1=O, the Potency is reported as inconclusive: 35.5 µM [inhibitor, partial curve, poor fit]. With CC1CCCC(NC(=O)C2CCC(CNc3c(N4CCCCC4)c(=O)c3=O)CC2)C1C (configuration not stated) the “activity change, negative = inhibition” value was inactive: 11.2% [at 46.1 µM]. For COc1ccc(-c2onc(C)c2C)cc1S(=O)(=O)NCC1CCN(Cc2cccc(F)c2)CC1, the Potency was inconclusive: 35.5 µM [inhibitor, single point]. In the case of Cc1ccc2occ(CC(=O)N(Cc3ccc(C(C)C)cc3)C3CCS(=O)(=O)C3)c2c1 (configuration not stated), the “activity change, negative = inhibition” value is reported as inactive: -11.1% [at 46.1 µM]. For Cc1nc(-n2[nH]c3c(c2=O)CCCC3)[nH]c(=O)c1Cc1ccccc1, the Potency was inconclusive: 25.9 µM [inhibitor, partial curve, poor fit]. In the case of O=C(CCC1N=C2c3ccccc3N=C(SCc3ccccc3F)N2C1=O)NCc1ccc(F)cc1 (configuration not stated), the Potency is reported as inconclusive: 35.5 µM [activator, single point]. For CCOC(=O)c1ccc(-n2[nH]c(-c3ccccc3)cc2=O)cc1, the Potency was inconclusive: 16.4 µM [inhibitor, single point]. With CC(C)(C)c1ccc(C(=O)N2CCC(c3nc4ccccc4o3)CC2)cc1 the “activity change, negative = inhibition” value was inactive: -3.25% [at 46.1 µM]. In the case of COc1cccc(/C=N/Nc2nc3ccccc3[nH]2)c1OC, the Potency is reported as inconclusive: 3.16 µM [activator, partial curve, poor fit]. For CCCC(=O)Nc1ccc2oc(-c3ccncc3)nc2c1, the “activity change, negative = inhibition” value was inactive: 13.6%. With COc1ccc(C(=O)CN2C(=O)c3ccccc3S2(=O)=O)cc1Br the Potency was inconclusive: 11.2 µM [inhibitor, partial curve, poor fit]. In the case of COc1ccc(NC(=O)COC(=O)CCCOc2ccc(Cl)cc2Cl)cc1, the Potency is reported as inconclusive: 35.5 µM [inhibitor, single point]. With CCN(CC(=O)Nc1c(F)cccc1F)C(=O)CCCc1nc2ccccc2c(=O)[nH]1 the Potency was inconclusive: 5.62 µM [inhibitor, partial curve, poor fit]. With Cc1ccc(C(C)C)c(OCC(=O)Nc2ccc(Cl)cn2)c1 the Potency was inconclusive: 20 µM [inhibitor, single point]. With CN(C)CCCOc1ccc(C(C)(C)c2ccccc2)cc1 the Potency was inconclusive: 23.1 µM [inhibitor, single point]. With COc1cccc(CNc2ccc(S(N)(=O)=O)cc2)c1OC the “activity change, negative = inhibition” value was inactive: 13.5%. In the case of COc1ccc(CNC(=O)COCc2cc(-c3cccs3)on2)cc1, the Potency is reported as inconclusive: 11.2 µM [inhibitor, partial curve, poor fit]. With Cc1ccc(C)c(S(=O)(=O)NC(C)C(=O)NCc2ccccn2)c1 (configuration not stated) the Potency was inconclusive: 11.2 µM [inhibitor, single point]. In the case of CCOc1ccc(C(=O)Nc2nnn(CC)n2)cc1, the Potency is reported as inconclusive: 23.1 µM [inhibitor, single point]. With Cc1ccc2nc(-c3ccc(SCC(=O)O)nc3)[nH]c2c1 the Potency was inconclusive: 16.4 µM [inhibitor, partial curve, poor fit]. With CCCCn1c(NCc2ccc(N(C)C)cc2)nc2ccccc21 the “activity change, negative = inhibition” value was inactive: 26.6% [at 46.1 µM]. In the case of COc1ccccc1CN1C[C@@H]2C[C@@H](c3cccc(C)c3)N3CCC[C@@]23C1=O, the “activity change, negative = inhibition” value is reported as inactive: 1.87%. With O=C(CCOc1ccccc1)N(Cc1cccnc1)c1nc2c(F)cccc2s1 the “activity change, negative = inhibition” value was inactive: 4.66% [at 46.1 µM]. With CSc1cccc(NC(=O)CCNS(=O)(=O)c2ccc3[nH]c(=O)oc3c2)c1 the “activity change, negative = inhibition” value was inactive: 14.5% [at 46.1 µM]. In the case of COCC1CCN(Cc2cn(Cc3ccccc3)nc2-c2cc3ccccc3o2)CC1, the Potency is reported as inconclusive: 11.2 µM [inhibitor, partial curve, poor fit]. In the case of Cc1ccccc1CSc1cn(CC(=O)N2CCCCCC2)c2ccccc12, the Potency is reported as inconclusive: 35.5 µM [inhibitor, single point]. With COc1cc(OC)c(OC)cc1/C=C(\C#N)C(=O)NCc1cccs1 the Potency was inconclusive: 1.12 µM [inhibitor, full curve, poor fit]. For COC(=O)c1ccc2c(c1)C(C)(C)C(/C=C/c1ccccc1O)=[N+]2C, the Potency was inconclusive: 32.6 µM [inhibitor, single point]. For CC(C)S(=O)(=O)c1csc(NC(=O)Nc2cc(Cl)ccc2Cl)c1Cl, the Potency was inconclusive: 35.5 µM [inhibitor, single point]. In the case of O=C(Nc1ccc(Cl)c(C(F)(F)F)c1)C1CCN(S(=O)(=O)c2cccc3nonc23)CC1, the Potency is reported as inconclusive: 7.08 µM [activator, partial curve]. For CC(CCc1ccc(O)cc1)NCCc1ccc(O)c(O)c1 (configuration not stated), the Potency was inconclusive: 4.61 µM [inhibitor, single point].
